Assay [1] has as its target Flag-tagged Bach2 protein (mouse) (UniProt P97303). Put plainly: AlphaScreen or HTRF; Flag-tagged Bach2 mixed with biotinylated transcription factors, 26 °C for 1 h; then protein A-conjugated acceptor beads, streptavidin-coated donor beads and anti-Flag M2 antibody, 26 °C for 1 h; proteins from cell-free synthesis; intensities relative to DHFR. (Bead proximity is the source of the signal in Alpha formats.)

Sequences of proteins named here, by UniProt entry; tags and fusion partners are left off.
UniProt P97303: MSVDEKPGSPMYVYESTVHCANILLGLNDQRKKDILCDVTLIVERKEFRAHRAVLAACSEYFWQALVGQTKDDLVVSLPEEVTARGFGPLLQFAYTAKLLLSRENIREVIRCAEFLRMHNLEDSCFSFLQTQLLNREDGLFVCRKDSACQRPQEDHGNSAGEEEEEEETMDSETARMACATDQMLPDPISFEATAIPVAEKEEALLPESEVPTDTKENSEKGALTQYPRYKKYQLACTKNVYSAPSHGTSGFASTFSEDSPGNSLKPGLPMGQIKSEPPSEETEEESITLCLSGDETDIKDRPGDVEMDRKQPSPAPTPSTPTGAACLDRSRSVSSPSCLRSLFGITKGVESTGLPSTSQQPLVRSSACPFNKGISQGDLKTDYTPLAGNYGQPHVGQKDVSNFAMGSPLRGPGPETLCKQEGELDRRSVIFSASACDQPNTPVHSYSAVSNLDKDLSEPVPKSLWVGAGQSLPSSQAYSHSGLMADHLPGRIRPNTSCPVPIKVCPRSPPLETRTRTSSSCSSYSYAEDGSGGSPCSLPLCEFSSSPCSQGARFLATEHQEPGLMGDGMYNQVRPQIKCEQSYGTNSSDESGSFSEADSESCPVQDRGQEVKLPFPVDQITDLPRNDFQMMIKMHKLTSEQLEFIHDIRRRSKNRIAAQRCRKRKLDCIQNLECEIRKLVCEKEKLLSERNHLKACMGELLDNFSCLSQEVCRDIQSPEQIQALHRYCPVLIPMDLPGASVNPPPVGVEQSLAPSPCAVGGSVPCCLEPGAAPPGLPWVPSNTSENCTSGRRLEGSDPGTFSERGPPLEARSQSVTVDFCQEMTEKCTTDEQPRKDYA

The next assay concerns the target T1, HA-tagged JunD, P15066.
T1 chain: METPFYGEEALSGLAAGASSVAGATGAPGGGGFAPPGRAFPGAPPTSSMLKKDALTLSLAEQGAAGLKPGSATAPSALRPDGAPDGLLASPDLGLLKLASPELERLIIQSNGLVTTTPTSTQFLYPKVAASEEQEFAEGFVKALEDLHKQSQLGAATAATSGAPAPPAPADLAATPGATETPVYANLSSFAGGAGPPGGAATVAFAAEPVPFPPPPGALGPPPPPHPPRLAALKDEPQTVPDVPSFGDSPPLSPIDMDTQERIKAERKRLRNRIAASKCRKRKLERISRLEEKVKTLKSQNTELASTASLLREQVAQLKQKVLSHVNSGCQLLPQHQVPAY
Put plainly: oligonucleotide precipitation assay; lysates of transfected 293 T cells incubated with biotinylated oligonucleotides (AP-1 consensus; Th2#3 RHS6, wild type or AP-1 motif mutant); bound proteins immunoblotted. Particulars: remark: other sources report otherwise. A general note: Immunoblotting shows a protein as a band on a membrane.

Assay [2] concerns the target HA-tagged Bach2 (mouse) (UniProt P97303). The description is as above.
For a further assay, the target named is Myc-tagged Bach2 (mouse) (UniProt P97303). The description is as above.
Assay [3] deals with HA-tagged Bach2 (mouse) (UniProt P97303). Description: co-IP; mixtures of lysates of 293 T cells transfected to express Myc-tagged or HA-tagged proteins; immunoprecipitation with anti-Myc-Tag or anti-HA-Tag mAb, immunoblot; RIPA buffer for the anti-Myc immunoprecipitation.

No constants are given. Whether binding was seen depends on the method and setting. For some of these results: In cells and extracts the contact can be indirect. Some binding calls cover weakened binding; strength is not graded here. For some of these results: Where a sequence is shown, tags or fusion partners need not be part of it.

B1: biotinylated Batf (protein, UniProt O35284 1-125)
chain: MPHSSDSSDSSFSRSPPPGKQDSSDDVRKVQRREKNRIAAQKSRQRQTQKADTLHLESEDLEKQNAALRKEIKQLTEELKYFTSVLSSHEPLCSVLASGTPSPPEVVYSAHAFHQPHISSPRFQP
modifications: biotinylated (site not stated)
As for B1, the binding result in assay [1] was “binds”.

B2: Myc-tagged Batf, O35284 1-125 (protein)
chain: MPHSSDSSDSSFSRSPPPGKQDSSDDVRKVQRREKNRIAAQKSRQRQTQKADTLHLESEDLEKQNAALRKEIKQLTEELKYFTSVLSSHEPLCSVLASGTPSPPEVVYSAHAFHQPHISSPRFQP
Turning to B2, in the assay with HA-tagged JunD, P15066, the binding result is given as “binds”.

B3: Myc-tagged Batf (protein, UniProt O35284 1-125)
chain: MPHSSDSSDSSFSRSPPPGKQDSSDDVRKVQRREKNRIAAQKSRQRQTQKADTLHLESEDLEKQNAALRKEIKQLTEELKYFTSVLSSHEPLCSVLASGTPSPPEVVYSAHAFHQPHISSPRFQP
B3: the binding entry in the assay with HA-tagged Bach2 (mouse) [2], in the assay with Myc-tagged Bach2 (mouse) and with HA-tagged Bach2 (mouse) [3] was “binds” throughout.

B4: biotinylated Batf3 (protein, UniProt Q9D275 1-118)
chain: MSQGPPAVSVLQRSVDAPGNQPQSPKDDDRKVRRREKNRVAAQRSRKKQTQKADKLHEEHESLEQENSVLRREISKLKEELRHLSEVLKEHEKMCPLLLCPMNFVQLRSDPVASCLPR
modifications: biotinylated (site not stated)
For the molecule B4, the binding result in assay [1] was “binds”.

B5: Myc-tagged Batf3 (protein, UniProt Q9D275 1-118)
chain: MSQGPPAVSVLQRSVDAPGNQPQSPKDDDRKVRRREKNRVAAQRSRKKQTQKADKLHEEHESLEQENSVLRREISKLKEELRHLSEVLKEHEKMCPLLLCPMNFVQLRSDPVASCLPR
As to B5, the binding entry with HA-tagged Bach2 (mouse) [3] is listed as “binds”.

The values are drawn from PMC5025763.
